No constants are given. Whether binding was seen depends on the method and setting.
What was measured:
Test in all cases: LacO/LacI tethering and recruitment, read by immunofluorescence
[1] = molecular target: EGFP-LacI-CENP-O (UniProt Q9BU64)
[2] = molecular target: EGFP-LacI-CENP-Q (UniProt Q7L2Z9)
[3] = molecular target: EGFP-LacI-CENP-U (UniProt Q71F23)
[4] = molecular target: EGFP-LacI-CENP-P (UniProt Q6IPU0)
[5] = molecular target: EGFP-LacI-CENP-R (UniProt Q13352)

Amino acid sequences for entries named in this document (tags omitted).
UniProt Q9BU64: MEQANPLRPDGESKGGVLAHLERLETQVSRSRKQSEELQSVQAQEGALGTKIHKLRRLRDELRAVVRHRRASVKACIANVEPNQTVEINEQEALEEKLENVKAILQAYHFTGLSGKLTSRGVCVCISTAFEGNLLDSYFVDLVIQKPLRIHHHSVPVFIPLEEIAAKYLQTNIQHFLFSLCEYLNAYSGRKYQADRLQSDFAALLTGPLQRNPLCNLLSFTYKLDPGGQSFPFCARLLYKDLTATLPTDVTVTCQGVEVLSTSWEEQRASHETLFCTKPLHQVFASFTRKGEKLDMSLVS
UniProt Q7L2Z9: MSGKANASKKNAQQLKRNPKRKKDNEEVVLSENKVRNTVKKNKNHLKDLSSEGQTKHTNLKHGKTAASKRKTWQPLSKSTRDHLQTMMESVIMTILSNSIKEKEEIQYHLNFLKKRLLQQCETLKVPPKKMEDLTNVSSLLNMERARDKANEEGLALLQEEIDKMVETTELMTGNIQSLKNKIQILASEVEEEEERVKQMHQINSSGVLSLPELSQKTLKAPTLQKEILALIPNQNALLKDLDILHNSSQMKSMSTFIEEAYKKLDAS
UniProt Q71F23: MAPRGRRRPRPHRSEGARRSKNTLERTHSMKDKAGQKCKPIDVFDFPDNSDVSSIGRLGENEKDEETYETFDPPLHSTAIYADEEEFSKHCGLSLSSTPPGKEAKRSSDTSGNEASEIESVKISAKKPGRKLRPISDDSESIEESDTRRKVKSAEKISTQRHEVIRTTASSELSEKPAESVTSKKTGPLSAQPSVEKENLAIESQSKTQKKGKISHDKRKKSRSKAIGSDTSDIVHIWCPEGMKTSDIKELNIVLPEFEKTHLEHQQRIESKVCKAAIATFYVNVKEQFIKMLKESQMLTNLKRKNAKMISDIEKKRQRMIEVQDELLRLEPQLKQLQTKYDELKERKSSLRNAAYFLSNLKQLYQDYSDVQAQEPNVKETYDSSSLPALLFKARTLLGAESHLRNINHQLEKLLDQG
UniProt Q6IPU0: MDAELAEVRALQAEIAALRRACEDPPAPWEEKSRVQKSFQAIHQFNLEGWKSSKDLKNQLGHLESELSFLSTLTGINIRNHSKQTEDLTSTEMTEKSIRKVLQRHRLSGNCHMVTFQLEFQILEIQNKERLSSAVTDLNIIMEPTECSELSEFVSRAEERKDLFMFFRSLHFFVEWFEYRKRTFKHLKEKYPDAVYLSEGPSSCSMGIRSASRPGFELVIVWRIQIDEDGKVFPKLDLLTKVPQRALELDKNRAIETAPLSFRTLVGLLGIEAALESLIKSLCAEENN
UniProt Q13352: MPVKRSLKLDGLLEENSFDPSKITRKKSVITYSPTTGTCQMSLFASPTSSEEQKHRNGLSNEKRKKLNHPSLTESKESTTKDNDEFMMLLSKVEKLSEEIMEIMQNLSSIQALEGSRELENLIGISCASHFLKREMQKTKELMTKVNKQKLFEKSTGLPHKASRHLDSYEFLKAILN
UniProt Q9NQS7: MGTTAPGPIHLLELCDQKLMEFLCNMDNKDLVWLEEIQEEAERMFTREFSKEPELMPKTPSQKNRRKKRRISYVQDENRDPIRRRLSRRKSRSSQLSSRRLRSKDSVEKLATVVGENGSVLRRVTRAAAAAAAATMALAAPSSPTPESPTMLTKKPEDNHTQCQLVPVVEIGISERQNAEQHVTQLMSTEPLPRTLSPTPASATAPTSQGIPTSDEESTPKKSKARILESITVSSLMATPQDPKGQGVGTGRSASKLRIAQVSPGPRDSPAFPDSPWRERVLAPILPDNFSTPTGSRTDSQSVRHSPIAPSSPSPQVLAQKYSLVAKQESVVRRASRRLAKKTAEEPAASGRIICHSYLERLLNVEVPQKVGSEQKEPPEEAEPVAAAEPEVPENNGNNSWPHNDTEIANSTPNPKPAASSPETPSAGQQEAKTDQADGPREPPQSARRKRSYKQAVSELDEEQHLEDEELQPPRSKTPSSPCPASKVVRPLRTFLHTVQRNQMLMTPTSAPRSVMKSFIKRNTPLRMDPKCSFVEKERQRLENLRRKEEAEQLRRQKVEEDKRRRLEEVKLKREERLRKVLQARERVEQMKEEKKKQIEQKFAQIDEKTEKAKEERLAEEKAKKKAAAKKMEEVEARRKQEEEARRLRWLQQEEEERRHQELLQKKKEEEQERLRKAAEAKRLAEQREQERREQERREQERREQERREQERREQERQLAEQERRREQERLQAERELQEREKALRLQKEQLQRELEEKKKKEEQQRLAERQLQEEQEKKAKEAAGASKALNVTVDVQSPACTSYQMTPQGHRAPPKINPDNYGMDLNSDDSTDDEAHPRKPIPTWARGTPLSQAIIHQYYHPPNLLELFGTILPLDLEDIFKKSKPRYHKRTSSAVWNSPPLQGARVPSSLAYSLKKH

Measured: binding

INCENP (from UniProt Q9NQS7 1-918)
no binding: all assays above

Polo-like kinase 1 (Plk1) (from UniProt P53350 1-603) (enzyme)
not listed: [3]
no binding: all other assays above
